From patent US20220017863A1, “SIRT2-ABLATED CHIMERIC T CELLS” (H. Lee Moffitt Cancer Center and Research Institute, Inc., priority 2019, published 2022)
Results are given in words; binding and its absence hold for the method and conditions named. For some of these results: In cells and extracts the contact can be indirect. Some binding calls cover weakened binding; strength is not graded here.

The chains behind the UniProt entries cited, without tags or fusion partners. Residues count along the entry.
UniProt Q8BMS1, residues 37-763: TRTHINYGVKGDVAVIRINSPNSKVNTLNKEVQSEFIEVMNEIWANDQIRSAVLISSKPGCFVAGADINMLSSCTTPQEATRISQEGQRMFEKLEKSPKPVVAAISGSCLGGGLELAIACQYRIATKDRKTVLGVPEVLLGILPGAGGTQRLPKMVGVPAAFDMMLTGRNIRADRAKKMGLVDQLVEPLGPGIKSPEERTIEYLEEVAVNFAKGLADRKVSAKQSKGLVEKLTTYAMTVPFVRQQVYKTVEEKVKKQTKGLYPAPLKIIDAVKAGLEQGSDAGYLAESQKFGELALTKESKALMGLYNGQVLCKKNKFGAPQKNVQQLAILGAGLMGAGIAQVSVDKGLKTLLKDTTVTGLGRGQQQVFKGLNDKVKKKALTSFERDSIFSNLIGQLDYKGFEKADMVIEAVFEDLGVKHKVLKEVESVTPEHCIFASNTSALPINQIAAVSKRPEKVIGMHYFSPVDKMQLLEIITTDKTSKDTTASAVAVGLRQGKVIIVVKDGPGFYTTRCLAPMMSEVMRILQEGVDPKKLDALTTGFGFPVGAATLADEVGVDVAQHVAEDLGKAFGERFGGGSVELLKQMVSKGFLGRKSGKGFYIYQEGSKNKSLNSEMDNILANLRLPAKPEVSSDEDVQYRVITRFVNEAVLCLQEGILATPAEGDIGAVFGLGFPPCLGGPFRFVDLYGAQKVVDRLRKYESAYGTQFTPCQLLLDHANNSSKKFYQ
UniProt P17182, residues 2-434: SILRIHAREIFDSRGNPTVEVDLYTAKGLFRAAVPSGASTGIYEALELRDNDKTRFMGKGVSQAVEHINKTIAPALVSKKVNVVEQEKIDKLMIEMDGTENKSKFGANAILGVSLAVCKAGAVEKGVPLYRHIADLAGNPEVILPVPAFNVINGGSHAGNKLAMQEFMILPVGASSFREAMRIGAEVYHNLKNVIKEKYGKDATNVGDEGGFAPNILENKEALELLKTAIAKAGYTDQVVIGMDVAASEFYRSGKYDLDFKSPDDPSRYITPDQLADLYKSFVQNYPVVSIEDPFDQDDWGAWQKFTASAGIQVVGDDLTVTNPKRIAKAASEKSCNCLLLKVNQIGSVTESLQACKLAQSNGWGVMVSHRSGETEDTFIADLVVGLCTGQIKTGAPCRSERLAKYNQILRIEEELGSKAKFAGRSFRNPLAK
UniProt P16858: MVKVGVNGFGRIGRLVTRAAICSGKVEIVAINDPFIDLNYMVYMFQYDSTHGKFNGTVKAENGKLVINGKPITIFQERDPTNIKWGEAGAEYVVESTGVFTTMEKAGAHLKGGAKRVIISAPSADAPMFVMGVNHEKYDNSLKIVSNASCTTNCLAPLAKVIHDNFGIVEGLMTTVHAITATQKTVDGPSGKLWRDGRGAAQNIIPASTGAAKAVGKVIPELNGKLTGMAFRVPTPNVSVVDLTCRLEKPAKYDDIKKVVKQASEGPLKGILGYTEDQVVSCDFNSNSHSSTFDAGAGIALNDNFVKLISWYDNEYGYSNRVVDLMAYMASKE
UniProt D3Z7P3, residues 55-674: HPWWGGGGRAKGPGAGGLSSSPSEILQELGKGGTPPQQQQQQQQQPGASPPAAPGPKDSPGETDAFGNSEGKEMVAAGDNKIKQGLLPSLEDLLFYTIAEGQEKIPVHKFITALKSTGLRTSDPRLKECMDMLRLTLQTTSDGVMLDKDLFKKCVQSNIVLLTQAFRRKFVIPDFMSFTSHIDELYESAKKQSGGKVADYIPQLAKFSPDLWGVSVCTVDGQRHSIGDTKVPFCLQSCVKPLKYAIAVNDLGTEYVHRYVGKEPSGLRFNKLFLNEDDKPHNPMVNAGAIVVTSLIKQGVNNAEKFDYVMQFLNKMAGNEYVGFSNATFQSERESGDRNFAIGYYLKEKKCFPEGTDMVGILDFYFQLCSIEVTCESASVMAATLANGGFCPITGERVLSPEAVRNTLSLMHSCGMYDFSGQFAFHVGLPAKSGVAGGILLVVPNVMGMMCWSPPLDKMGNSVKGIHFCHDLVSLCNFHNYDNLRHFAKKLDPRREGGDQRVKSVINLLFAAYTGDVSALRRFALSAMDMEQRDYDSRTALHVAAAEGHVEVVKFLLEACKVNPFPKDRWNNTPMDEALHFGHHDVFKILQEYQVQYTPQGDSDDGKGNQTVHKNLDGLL

What was measured:
[1] = target: Hydroxyacyl-CoA Dehydrogenase Trifunctional Multienzyme Complex Subunit Alpha (HADHA) (mouse) (UniProt Q8BMS1); test: IP of Sirt2, LC-MS/MS, activated WT mouse CD3+ T cell extracts
[2] = target: T1, Hydroxyacyl-CoA Dehydrogenase Trifunctional Multienzyme Complex Subunit Beta (HADHB) (mouse) (UniProt Q99JY0); test: as above
T1 sequence (looked up): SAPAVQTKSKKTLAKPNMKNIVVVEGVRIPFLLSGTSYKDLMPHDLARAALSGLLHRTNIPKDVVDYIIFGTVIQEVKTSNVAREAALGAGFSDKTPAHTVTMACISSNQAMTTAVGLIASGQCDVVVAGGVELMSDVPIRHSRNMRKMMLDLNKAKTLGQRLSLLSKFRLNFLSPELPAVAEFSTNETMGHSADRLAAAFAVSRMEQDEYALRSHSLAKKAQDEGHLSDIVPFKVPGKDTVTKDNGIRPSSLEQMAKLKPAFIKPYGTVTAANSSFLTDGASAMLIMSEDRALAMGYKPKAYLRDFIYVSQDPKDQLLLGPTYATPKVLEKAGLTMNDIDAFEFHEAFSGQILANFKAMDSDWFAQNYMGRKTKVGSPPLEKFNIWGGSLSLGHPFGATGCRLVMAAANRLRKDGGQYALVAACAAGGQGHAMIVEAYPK

enolase 1 (ENO1) (mouse) [3] = target: enolase 1 (ENO1) (mouse) (UniProt P17182); test: as above
[4] = target: glyceraldehyde-3-phosphate dehydrogenase (GAPDH) (mouse) (UniProt P16858); test: as above
enolase 1 (ENO1) (mouse) [5] = target: enolase 1 (ENO1) (mouse) (UniProt P17182); test: IP of Sirt2, LC-MS/MS, activated WT mouse CD3+ T cell extracts (FIG. 24A)
[6] = target: glyceraldehyde-3-phosphate dehydrogenase (GAPDH) (mouse) (UniProt P16858); test: as above
[7] = target: Hydroxyacyl-CoA Dehydrogenase Trifunctional Multienzyme Complex Subunit Alpha (HADHA) (mouse) (UniProt Q8BMS1); test: co-IP with anti-Sirt2, immunoblot, activated WT mouse CD3+ T cell extracts
[8] = target: T1, Hydroxyacyl-CoA Dehydrogenase Trifunctional Multienzyme Complex Subunit Beta (HADHB) (mouse); test: as above
enolase 1 (ENO1) (mouse) [9] = target: enolase 1 (ENO1) (mouse) (UniProt P17182); test: as above
[10] = target: glutaminase (GLS) (mouse) (UniProt D3Z7P3); test: as above
[11] = target: glyceraldehyde-3-phosphate dehydrogenase (GAPDH) (mouse) (UniProt P16858); test: as above
enolase 1 (ENO1) (mouse) [12] = target: enolase 1 (ENO1) (mouse) (UniProt P17182); test: co-IP with anti-Sirt2, immunoblot, activated WT mouse CD3+ T cell extracts (FIG. 3B)
[13] = target: glyceraldehyde-3-phosphate dehydrogenase (GAPDH) (mouse) (UniProt P16858); test: as above
enolase 1 (ENO1) (mouse) [14] = target: enolase 1 (ENO1) (mouse) (UniProt P17182); test: anti-Sirt2 co-IP vs isotype control, LC-MS/MS, activated WT mouse CD3+ T cell extracts
[15] = target: glyceraldehyde-3-phosphate dehydrogenase (GAPDH) (mouse) (UniProt P16858); test: as above
enolase 1 (ENO1) (mouse) [16] = target: enolase 1 (ENO1) (mouse) (UniProt P17182); test: co-IP/immunoblot and reverse co-IP/immunoblot, activated WT mouse CD3+ T cell extracts
[17] = target: glyceraldehyde-3-phosphate dehydrogenase (GAPDH) (mouse) (UniProt P16858); test: as above
[18] = target: glyceraldehyde-3-phosphate dehydrogenase (GAPDH) (mouse) (UniProt P16858); test: reverse co-IP with antibody to the enzyme, anti-Sirt2 immunoblot, activated WT mouse CD3+ T cell extracts
[19] = target: glyceraldehyde-3-phosphate dehydrogenase (GAPDH) (mouse) (UniProt P16858); test: reverse co-IP with antibody to the enzyme, anti-Sirt2 immunoblot, activated WT mouse CD3+ T cell extracts (FIG. 3C)

binding [1]: binds
binding [2]: binds
binding (enolase 1 (ENO1) (mouse) [3]): binds
binding [4]: binds
binding (enolase 1 (ENO1) (mouse) [5]): binds
binding [6]: binds
binding [7]: binds
binding [8]: binds
binding (enolase 1 (ENO1) (mouse) [9]): binds
binding [10]: binds
binding [11]: binds
binding (enolase 1 (ENO1) (mouse) [12]): binds
binding [13]: binds
binding (enolase 1 (ENO1) (mouse) [14]): binds
binding [15]: binds
binding (enolase 1 (ENO1) (mouse) [16]): binds
binding [17]: binds
binding [18]: binds
binding [19]: binds
B1: Sirt2 (enzyme, mouse, UniProt Q8VDQ8 2-389, looked up)
chain: AEPDPSDPLETQAGKVQEAQDSDSDTEGGATGGEAEMDFLRNLFTQTLGLGSQKERLLDELTLEGVTRYMQSERCRKVICLVGAGISTSAGIPDFRSPSTGLYANLEKYHLPYPEAIFEISYFKKHPEPFFALAKELYPGQFKPTICHYFIRLLKEKGLLLRCYTQNIDTLERVAGLEPQDLVEAHGTFYTSHCVNTSCRKEYTMGWMKEKIFSEATPRCEQCQSVVKPDIVFFGENLPSRFFSCMQSDFSKVDLLIIMGTSLQVQPFASLISKAPLATPRLLINKEKTGQTDPFLGMMMGLGGGMDFDSKKAYRDVAWLGDCDQGCLALADLLGWKKELEDLVRREHANIDAQSGSQAPNPSTTISPGKSPPPAKEAARTKEKEEQQ
